Experimental data published in PubChem BioAssay AID493014 (National Center for Advancing Translational Sciences (NCATS), 2011).
About 170 (0.05%) of roughly 340,000 compounds were called active. This list was built around the results that the source calls inconclusive (neither active nor inactive); the mix of calls is not that of the screen. Calls follow the shape of the dose curve; as a rule, active = well fitted inhibition curve with a large enough effect in the signal ratio, with a control signal flat (not every such curve was filed as active); inconclusive = small, poorly fitted or top-dose-only effect, or effect the other way, or a change in a side signal; inactive = flat fitted curve, though single readings scatter; the % refers to the signal ratio. Where the call is inconclusive, the potency comes from a doubtful curve fit.

Experiment: qHTS Assay to Find Inhibitors of Chronic Active B-Cell Receptor Signaling;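 as to activity change, negative = inhibition: plate controls were basal doxycycline-induced cells for no effect and cells given 10 µM MG132 for full effect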
Conditions: ABC-DLBCL IkBa-CBG/CBR reporter, luminescence ratio (green luciferase fused to IkBa over red control in TMD8 lymphoma cells), 4 h; activity change, negative = inhibition: at 46.1 µM (top of the series)
Method in brief: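 TMD8 ABC-DLBCL cells carrying doxycycline-inducible green luciferase fused to IkappaBalpha plus unfused red luciferase were exposed to compounds (up to 46 uM) for 4 hrs at 37C. Activity came from the overlap-corrected green/red luminescence ratio.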
Potency is read from the fitted curve at half-maximal effect.

Q: For `O=C(Nc1cccc(F)c1)NC1(C(=O)N2CCOCC2)CCCCC1`, which activity change, negative = inhibition is on record?
A: Its activity change, negative = inhibition is inconclusive: 11.8%.

Q: With `CCOc1ccc(-c2nnc(-c3cccs3)o2)cc1` as the compound, how does the activity change, negative = inhibition read?
A: The activity change, negative = inhibition was inconclusive: 3.13%.

Q: Which activity change, negative = inhibition does the source give for `c1ccc(CN2CCN(c3nc(-c4ccccc4)nc(-n4ccnc4)n3)CC2)cc1` here?
A: Its activity change, negative = inhibition is inconclusive: 6.1%.

Q: For `Cc1nn(-c2ccccc2)c(CC(C)(C)C(=O)O)c1C(=O)O`, which activity change, negative = inhibition is on record?
A: The activity change, negative = inhibition was inconclusive: 10.5%.

Q: With `O=C(CCN1CCCCCC1)Nc1ccc(F)cc1` as the compound, how does the activity change, negative = inhibition read?
A: Its activity change, negative = inhibition is “inactive”.

Q: Which Potency does the source give for `CCOc1ccc(N(Cc2ccccc2F)C2=NC3CS(=O)(=O)CC3S2)cc1` (centres undefined) here?
A: The Potency was inconclusive: 22.4 µM [falling, single point].

Q: Which activity change, negative = inhibition does the source give for `CCOC(=O)c1c(C)c(C(=O)O)n(C)c1C` here?
A: The activity change, negative = inhibition was “inactive”.

Q: Which activity change, negative = inhibition does the source give for `COc1cccc(CC(=O)Nc2ccc(S(=O)(=O)N3CCCCC3)cc2)c1` here?
A: The activity change, negative = inhibition was “inactive”.

Q: With `CC(=O)O[C@H]1[C@H](O)[C@H](Oc2c(O)c(C)c3c4c2[C@@H](C)CC[C@@H]4[C@@H](C)C[C@H]3C=C(C)C)O[C@@H](C)[C@H]1O` as the compound, how does the activity change, negative = inhibition read?
A: Its activity change, negative = inhibition is inconclusive: 12.1%.

Q: For `CC(=O)c1c(Cl)nc2cccc3c2c1-c1ccccc1C3=O`, which activity change, negative = inhibition is on record?
A: The activity change, negative = inhibition was “inactive”.

Q: For `O=C(Nc1ccc(N2CCOCC2)cc1)c1ccc(Cl)c(S(=O)(=O)N2CCCCC2)c1`, which activity change, negative = inhibition is on record?
A: The activity change, negative = inhibition was “inactive”.

Q: For `COc1ccc(/C=N/NC(=O)c2ccco2)cc1COc1ccc(F)cc1`, which activity change, negative = inhibition is on record?
A: The activity change, negative = inhibition was inconclusive: -1.04%.

Q: With `COC(Cn1cc(C)c(=O)[nH]c1=O)OC` as the compound, how does the activity change, negative = inhibition read?
A: The activity change, negative = inhibition was inconclusive: 20%.

Q: Which Potency does the source give for `COC(=O)c1oc2nc(C)cc(C)c2c1N` here?
A: Its Potency is inconclusive: 25.9 µM [rising, partial curve, poor fit].

Q: Which activity change, negative = inhibition does the source give for `NC1=NC(=Nc2ccccc2)c2ccccc21` here?
A: Its activity change, negative = inhibition is inconclusive: 22.5%.

Q: For `CS(=O)(=O)N1CCN(c2ncnc3c2cnn3-c2ccccc2)CC1`, which Potency is on record?
A: The Potency was inconclusive: 2.51 µM [falling, single point].

Q: For `CN(C)c1ccc(-n2cccc2/C=N/n2cnnc2)cc1`, which activity change, negative = inhibition is on record?
A: The activity change, negative = inhibition was inconclusive: -2.67%.

Q: Which activity change, negative = inhibition does the source give for `COc1ccc(C(=O)N/C(=C\c2cn(C)c3ccccc23)C(=O)OCCN(C)C)cc1` here?
A: Its activity change, negative = inhibition is “inactive”.

Q: With `O=C(NC1CCCC1)c1ccccc1-c1nc2ccccc2[nH]1` as the compound, how does the activity change, negative = inhibition read?
A: Its activity change, negative = inhibition is “inactive”.

Q: With `COc1ccccc1-n1cnc2cc(C(=O)N3CCOCC3)ccc21` as the compound, how does the Potency read?
A: The Potency was inconclusive: 8.91 µM [falling, partial curve, poor fit].

Q: With `CCOc1cccc2sc(N(CCCN(C)C)C(=O)c3ccc(S(=O)(=O)N(CC)Cc4ccccc4)cc3)nc12` as the compound, how does the activity change, negative = inhibition read?
A: The activity change, negative = inhibition was inconclusive: -20.4%.

Q: For `Cc1ccccc1C(=O)N1CCC(C(N)=O)CC1`, which activity change, negative = inhibition is on record?
A: Its activity change, negative = inhibition is inconclusive: 17.3%.

Q: For `CCC(=O)N1CCc2cc(Br)cc(S(=O)(=O)C3(C(=O)OC)CC3)c21`, which activity change, negative = inhibition is on record?
A: The activity change, negative = inhibition was inconclusive: 7.98%.

Q: With `Cc1ccc(OC(=O)C(F)(F)F)c2c1NCCC2` as the compound, how does the activity change, negative = inhibition read?
A: Its activity change, negative = inhibition is inconclusive: -3.13%.
